Test results reported in PMC6138935.
No constants are given. Whether binding was seen depends on the method and setting. In cells and extracts the contact can be indirect. Some entries that bind do so weakly or less than the wild type. Values belong to the molecule of their own block, whether it stands above or below them.

By UniProt entry, the sequences of proteins in these tests, tags left out.
UniProt P10275: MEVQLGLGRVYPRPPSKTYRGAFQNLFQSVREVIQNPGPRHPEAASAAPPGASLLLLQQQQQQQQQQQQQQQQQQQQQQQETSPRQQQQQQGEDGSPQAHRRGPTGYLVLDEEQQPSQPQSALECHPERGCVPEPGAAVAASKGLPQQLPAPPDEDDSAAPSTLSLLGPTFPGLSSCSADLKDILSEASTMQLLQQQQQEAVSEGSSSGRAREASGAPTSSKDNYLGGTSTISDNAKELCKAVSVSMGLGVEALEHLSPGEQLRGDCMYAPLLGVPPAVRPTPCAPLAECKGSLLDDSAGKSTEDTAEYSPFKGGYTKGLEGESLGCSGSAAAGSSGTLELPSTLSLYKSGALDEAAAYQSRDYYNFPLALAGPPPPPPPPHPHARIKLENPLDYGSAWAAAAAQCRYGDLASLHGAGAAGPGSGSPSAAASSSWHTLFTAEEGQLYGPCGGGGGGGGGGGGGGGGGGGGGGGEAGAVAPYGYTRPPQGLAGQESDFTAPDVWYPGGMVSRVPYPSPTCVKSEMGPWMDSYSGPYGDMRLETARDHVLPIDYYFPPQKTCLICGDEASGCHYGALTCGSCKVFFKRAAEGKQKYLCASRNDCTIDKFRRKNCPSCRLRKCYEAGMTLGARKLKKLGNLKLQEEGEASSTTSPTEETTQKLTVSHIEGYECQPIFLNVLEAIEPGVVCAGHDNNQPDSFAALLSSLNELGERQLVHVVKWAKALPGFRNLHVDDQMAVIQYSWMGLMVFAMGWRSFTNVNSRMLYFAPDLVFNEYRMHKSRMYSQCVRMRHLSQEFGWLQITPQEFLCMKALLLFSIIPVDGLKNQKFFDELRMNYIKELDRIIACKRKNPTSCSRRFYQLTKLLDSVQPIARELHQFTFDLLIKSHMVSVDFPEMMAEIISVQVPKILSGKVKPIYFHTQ
UniProt P01106: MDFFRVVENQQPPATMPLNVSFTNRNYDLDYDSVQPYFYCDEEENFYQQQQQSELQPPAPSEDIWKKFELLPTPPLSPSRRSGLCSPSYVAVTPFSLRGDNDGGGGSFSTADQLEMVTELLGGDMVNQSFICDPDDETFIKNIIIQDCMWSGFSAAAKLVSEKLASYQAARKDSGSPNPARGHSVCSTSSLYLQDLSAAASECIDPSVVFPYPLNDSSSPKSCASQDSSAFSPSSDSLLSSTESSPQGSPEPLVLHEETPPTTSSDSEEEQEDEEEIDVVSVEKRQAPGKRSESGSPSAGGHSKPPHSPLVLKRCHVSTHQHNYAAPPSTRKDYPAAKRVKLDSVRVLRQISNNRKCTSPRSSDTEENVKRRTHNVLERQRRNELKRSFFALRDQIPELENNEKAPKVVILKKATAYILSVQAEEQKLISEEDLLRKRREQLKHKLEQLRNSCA

Legend:
[1] = molecular target: T1, Prostate-derived Ets factor, overexpressed from a lentiviral vector in SKBR-3 cells (UniProt O95238); test: co-IP; anti-PDEF antibody (ab53881) covalently coupled to resin (Pierce Co-IP kit), incubated with cell lysates overnight at 4 °C, western blot; PDEF-overexpressing SKBR-3 cells and control vector-infected cells
T1 sequence: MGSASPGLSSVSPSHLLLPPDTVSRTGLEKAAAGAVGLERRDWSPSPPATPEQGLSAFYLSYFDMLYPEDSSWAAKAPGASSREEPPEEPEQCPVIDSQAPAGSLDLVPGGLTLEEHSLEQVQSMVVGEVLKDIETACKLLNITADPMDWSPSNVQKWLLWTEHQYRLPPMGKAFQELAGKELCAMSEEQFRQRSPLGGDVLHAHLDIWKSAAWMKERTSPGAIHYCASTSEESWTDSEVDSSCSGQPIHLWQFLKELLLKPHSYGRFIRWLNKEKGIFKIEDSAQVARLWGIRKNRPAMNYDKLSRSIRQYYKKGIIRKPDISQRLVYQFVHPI

[2] = molecular target: Androgen receptor (human (endogenous in MDA-MB-453 and SKBR-3)) (UniProt P10275); test: co-IP; anti-AR antibody (ab9474) covalently coupled to resin (Pierce Co-IP kit), incubated with cell lysates overnight at 4 °C, western blot; MDA-MB-453 and SKBR-3 cells treated with 1 nM DHT for 48 h, and control cells

binding [1]: no binding
Molecule: MYC (from UniProt P01106 1-454)

binding [2]: binds
B1: Prostate-derived Ets factor (protein, UniProt O95238 1-335)
chain: T1 sequence
